These are yes or no findings as the source states them, for the method shown. Binding seen in cells or lysates may run through a third protein. Some results given as binding are weak or reduced against the parent protein; the word gives no strength. Tags and fused reporters may be left off the sequences shown.
Molecular target: T1, Pdcd4(39–91)luc (Pdcd4 amino acids 39–91 fused to firefly luciferase) (UniProt Q61823)
T1 sequence: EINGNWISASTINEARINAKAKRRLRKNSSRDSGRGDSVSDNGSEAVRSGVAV
Assay: co-IP; anti-luciferase antibody and Protein A Sepharose on whole-cell extracts of HEK293 cells stably expressing Pdcd4(39-91)luc and transfected with β-TrCP1; cells treated 8 h with DMSO or TPA (10 nM) with or without erioflorin (5 µM), with MG132; IP buffer 50 mM Tris-HCl pH 7.4, 300 mM NaCl, 5 mM EDTA, 1% NP-40; western for β-TrCP

binding: binds
B1: β-transducin repeat-containing protein 1 (β-TrCP1), overexpressed in HEK293 cells (natural protein, UniProt Q9Y297 1-605, looked up)
chain: MDPAEAVLQEKALKFMCSMPRSLWLGCSSLADSMPSLRCLYNPGTGALTAFQNSSEREDCNNGEPPRKIIPEKNSLRQTYNSCARLCLNQETVCLASTAMKTENCVAKTKLANGTSSMIVPKQRKLSASYEKEKELCVKYFEQWSESDQVEFVEHLISQMCHYQHGHINSYLKPMLQRDFITALPARGLDHIAENILSYLDAKSLCAAELVCKEWYRVTSDGMLWKKLIERMVRTDSLWRGLAERRGWGQYLFKNKPPDGNAPPNSFYRALYPKIIQDIETIESNWRCGRHSLQRIHCRSETSKGVYCLQYDDQKIVSGLRDNTIKIWDKNTLECKRILTGHTGSVLCLQYDERVIITGSSDSTVRVWDVNTGEMLNTLIHHCEAVLHLRFNNGMMVTCSKDRSIAVWDMASPTDITLRRVLVGHRAAVNVVDFDDKYIVSASGDRTIKVWNTSTCEFVRTLNGHKRGIACLQYRDRLVVSGSSDNTIRLWDIECGACLRVLEGHEELVRCIRFDNKRIVSGAYDGKIKVWDLVAALDPRAPAGTLCLRTLVEHSGRVFRLQFDEFQIVSSSHDDTILIWDFLNDPAAQAEPPRSPSRTYTYISR

Source: article PMC3462793, “Erioflorin Stabilizes the Tumor Suppressor Pdcd4 by Inhibiting Its Interaction with the E3-ligase β-TrCP1” (PLoS ONE, 2012)
